The nature of the test: qHTS Assay for Lipid Storage Modulators in Drosophila S3 Cells.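 As to cell number change: cells counted by Cell Tracker Red CMTPX staining in the red channel.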 Conditions: BODIPY lipid droplet fluorescence, 18-24 h; for cell number change: measured here: cell count max response, cells fed with added oleic acid. The gist of the method:
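Laser-scanning cytometry quantifies lipid droplet accumulation (500–530 nm total intensity; droplet/cell object ratio) in oleic acid-fed (400 uM added) Drosophila S3 cells treated with a concentration series. 20 uM Triacsin C defined 100% inhibition.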

[1] abbreviates: measured here: lipid fluorescence (Fed channel) AC50, cells fed with added oleic acid.
The mark [2] stands for this setting: measured here: cell number channel AC50, cells fed with added oleic acid.

The other results are listed elsewhere or left out. These are further read-outs of the screen, such as a control signal, another cell line or another target. No call is given for them. The list favours compounds with an active or inconclusive main result. Words in brackets tell the shape of the fitted curve; partial curves, single points and poor fits give uncertain potencies.

The source of these data is PubChem BioAssay AID2685 (National Center for Advancing Translational Sciences (NCATS), 2010).

For the molecule `CCN1C(=O)c2ccccc2S(=O)(=O)c2ccc(C(=O)NCCOC)cc21`, the cell number change was -16.7%.
By AC50 is commonly meant the concentration at which the activity in the assay is half-maximal. On to `CCOC(=O)N1CCN(CC(O)COCc2ccccc2)CC1` (stereo not given), for which the cell number change is -0.99%. Moreover, under setting [1], the AC50 was 0.651 µM [falling, full curve, poor fit].
`O=C(COc1ccc(Br)cc1Br)NC(=S)Nc1cccc(CO)c1`: the cell number change came out at 2.82%. Besides, the AC50 under setting [1] is 0.00461 µM [rising, full curve, poor fit].
As to `CCN(C(=O)COC(=O)c1nc(Cl)ccc1Cl)C1CCS(=O)(=O)C1` (stereo not given), the cell number change is -10%.
For the molecule `COc1cccc(C2NC(=O)CCC2[N+](=O)[O-])c1` (stereo not given), the cell number change is 82%. Further, under setting [2], the AC50 is 9.2 µM [rising, partial curve]. The AC50 under setting [1] was 6.51 µM [rising, single point].
With `Cc1cc(C(=O)N/N=C/c2c(C)nn(-c3ccccc3)c2C)c(C)o1`, the cell number change worked out at 15%. Besides, under setting [1], the AC50 is 0.291 µM [rising, full curve, poor fit].
For the molecule `CCn1c(SCC(=O)c2ccc3ccccc3c2)nnc1-c1ccco1`, the cell number change came to 40.4%. For the same molecule, the concentration at half-maximal activity (AC50) under setting [2] is 23.1 µM [rising, single point].
`CCCn1c(SCC(=O)Nc2nc(C)c(C(=O)OC)s2)nnc1C(C)C`: the cell number change is -2.58%. Moreover, the AC50 under setting [1] was 1.3 µM [rising, partial curve].
On to `C#Cc1ccc(CN2CCCC(C(=O)Nc3ccccc3Oc3cccnc3)C2)cc1` (stereo not given), for which the cell number change was 42.9%. The AC50 under setting [2] was 29.1 µM [rising, single point].
For the molecule `Cc1ccc(NS(=O)(=O)c2cc3c(cc2C)NC(=O)CO3)cc1`, the cell number change was -23.1%.
For the molecule `CCc1cccc(C)c1NC(=O)CN1CCN(S(=O)(=O)c2ccc(C(C)(C)C)cc2)CC1`, the AC50 under setting [1] was 0.13 µM [falling, full curve, poor fit].
For `Cc1ccnc(NC(=O)CCC(=O)N(CC(=O)NCc2ccc(F)cc2)Cc2ccco2)c1`, the cell number change was 5.22%.
Still for that read-out and setting: the figure for `O=C(COC(=O)CNC(=O)c1ccc(Br)cc1)Nc1nnc(-c2ccccc2)o1` is 20.5%.
Take `Cc1ccc(S(=O)(=O)Nc2cc(Cl)ccc2-n2cncn2)cc1`: the cell number change was 32.3%. Moreover, the AC50 under setting [2] was 29.1 µM [rising, single point]. Besides, the AC50 under setting [1] was 16.4 µM [rising, partial curve].
Take `COc1ccc(NC(=O)C2=CC(c3ccco3)=NS(=O)(=O)N2C)cc1OC`: the cell number change amounted to 19%. For the same molecule, under setting [1], the AC50 was 4.11 µM [rising, full curve, poor fit].
Regarding `CCN(CC)S(=O)(=O)c1ccc(C)c(NC(=S)N2CCN(Cc3ccc4c(c3)OCO4)CC2)c1`, the cell number change is -1.59%. Under setting [1], the AC50 is 0.0517 µM [rising, full curve, poor fit].
Take `CCC(C)[C@H]1CNCCN1CCc1cccc(F)c1` (stereo not given in full): the cell number change worked out at 10.6%. For the same molecule, the AC50 under setting [1] was 0.231 µM [falling, full curve, poor fit].
For the molecule `CC1(C)Cc2c(c(N3CCCC3)nc3sc4c(N5CCNCC5)ncnc4c23)CO1`, the cell number change came to 25.7%. The AC50 under setting [2] was 0.58 µM [rising, full curve, poor fit].
For `COc1ccc(OCC(=O)OCC(=O)NCC2CCCCC2)cc1`, the cell number change turned out to be 8.78%. Besides, the AC50 under setting [1] is 23.1 µM [rising, single point].
With `CCc1sc(NC(=O)CCC(=O)O)nc1-c1cc2ccccc2oc1=O`, the cell number change is -16.8%. The AC50 under setting [1] was 0.00517 µM [falling, full curve, poor fit].
As to `Cc1ccc(N(CC(=O)NC2CCC(C)CC2)S(=O)(=O)c2cccnc2)cc1` (stereo not given), the cell number change amounted to 8.61%.
As to `COc1cc(OC)c(/C=N/NC(=O)c2ccncc2)cc1Br`, the cell number change was 1.9%. The AC50 under setting [1] is 20.6 µM [rising, single point].
Take `COc1ccc(-n2nc(C(=O)NCC(=O)N(C)Cc3ccccc3)c3ccccc3c2=O)cc1OC`: the cell number change is -4.05%. Besides, the AC50 under setting [1] is 29.1 µM [falling, partial curve, poor fit].
As to `CCNC(=S)Nc1ccc(S(=O)(=O)Nc2cc(C)nc(C)n2)cc1`, the cell number change is -17.4%. The AC50 under setting [1] was 4.11 µM [falling, full curve].
Regarding `OC(CNC1CCCCC1)CNC1CCCCC1`, the cell number change was found to be 31.4%. Besides, under setting [2], the AC50 was 29.1 µM [rising, single point].
On to `N#Cc1nc(-c2ccccc2)oc1NCC1CCCO1` (stereo not given), for which the cell number change was -60.4%. For the same molecule, under setting [2], the AC50 was 29.1 µM [falling, single point]. For the same molecule, the AC50 under setting [1] was 29.1 µM [falling, single point].
`CC(C)CCn1nnnc1C(c1ccccc1)N1CCN(C)CC1` (stereo not given): the cell number change was -30.8%. Besides, under setting [2], the AC50 is 0.0146 µM [falling, full curve]. Further, the AC50 under setting [1] is 29.1 µM [rising, single point].
For `CCS(=O)(=O)N1Cc2ccccc2CC1C(=O)NCc1cccc(OC)c1` (stereo not given), the cell number change turned out to be 17.3%.
As for `Brc1c(CSc2nncn2-c2ccccc2)nc2ncccn12`, the cell number change amounted to 31.5%. Under setting [2], the AC50 was 6.51 µM [rising, full curve, poor fit].
In the case of `CC(Sc1nc(-c2ccccc2)cc(C(F)(F)F)n1)C(=O)N1CCC(C(N)=O)CC1` (stereo not given), the cell number change was -22.7%. In addition, the AC50 under setting [1] is 29.1 µM [falling, single point].
Turning to `COc1ccc2[nH]c(C(=O)NCCCn3ccnc3)cc2c1`, the cell number change is 14.6%. Further, the half-maximal activity concentration (AC50) under setting [1] was 0.206 µM [rising, full curve, poor fit].
In the case of `O=C(Nc1ccc(Cl)cn1)C1CC1`, the cell number change is -2.05%.
As for `COc1ccc(CC2(C)OC(c3ccccc3)=NN2C(C)=O)cc1` (stereo not given), the cell number change was -21.9%. In addition, under setting [1], the AC50 is 2.06 µM [rising, partial curve, poor fit].
On to `Cc1cc(C)c2c(NC(=O)CCl)nn(C)c2n1`, for which, under setting [1], the concentration at half-maximal activity (AC50) is 6.51 µM [rising, single point].
Turning to `O=[N+]([O-])c1cc(-c2nc(-c3ccncc3)no2)cc([N+](=O)[O-])c1`, the cell number change was -16.2%.
Consider `O=C(Cc1ccccc1)NN1C(=O)/C(=C/c2ccccc2C(=O)O)SC1=S`, for which the cell number change is -7.31%. Besides, the half-maximal activity concentration (AC50) under setting [1] was 6.51 µM [falling, partial curve].
`CCOc1ccc(CCNC(=O)COC(=O)c2cccc(OC)c2O)cc1OCC`: the cell number change was -32.3%. For the same molecule, under setting [1], the AC50 is 29.1 µM [falling, single point].
Consider `CN(Cc1cn(C)nc1-c1ccccc1F)C1CCOC1` (stereo not given), for which the cell number change worked out at 12.8%. Also, the AC50 under setting [1] was 25.9 µM [rising, single point].
As to `CCOC(=O)c1ccc(S(=O)(=O)N2CCN(CCC#N)CC2)cc1`, the cell number change is 7.69%. For the same molecule, the AC50 under setting [1] is 6.51 µM [falling, single point].
As to `CCCNC(=O)c1ccccc1NC(=O)CSCc1ccc(OC)cc1`, the AC50 under setting [1] is 0.731 µM [rising, single point].
Regarding `CCOC(=O)C1=C(C)N=c2s/c(=C\c3ccc(O)c([N+](=O)[O-])c3)c(=O)n2C1c1ccccc1OC` (stereo not given), the cell number change is -9.59%. Also, the concentration at half-maximal activity (AC50) under setting [1] is 32.6 µM [falling, single point].
As to `Cc1ccc(Cl)cc1N1CCN(Cc2nc3c(c(=O)[nH]c(=O)n3C)n2CCc2ccccc2)CC1`, the cell number change was determined as 20.8%.
As to `Cc1ccc(C2=N/C(=C/N3CCOCC3)C(=O)O2)cc1`, the AC50 under setting [1] was 29.1 µM [rising, single point].
Turning to `COc1ccc(C2CCN(Cc3cccnc3)CC2O)cc1` (stereo not given), the cell number change came out at 21.5%. Under setting [1], the AC50 is 10.3 µM [rising, partial curve, poor fit].
For `CN(c1ccccc1C(=O)Nc1ccc(CC#N)cc1)S(=O)(=O)c1ccccc1`, the cell number change was -23.6%. In addition, under setting [1], the AC50 was 29.1 µM [falling, single point].
For `Cc1cccn2c(=O)nc(SCC(=O)N3CCCC3)nc12`, the AC50 is, setting by setting: under setting [2], 1.84 µM [rising, partial curve]; under setting [1], 2.06 µM [rising, partial curve].
In the case of `Cc1nc2ccccc2n1CC(=O)OCC(=O)NCCc1ccccc1`, the cell number change was -30.6%. The AC50 under setting [2] was 0.82 µM [falling, full curve, poor fit]. Moreover, the AC50 under setting [1] was 8.2 µM [rising, partial curve].
On to `O=C(CCn1c(=O)oc2ccccc21)N1CCCCCC1`, for which the cell number change was found to be 18.6%. For the same molecule, under setting [1], the AC50 is 29.1 µM [rising, single point].
As for `CC(C)N1CCc2c(sc(NC(=O)c3ccco3)c2C(N)=O)C1`, the cell number change came to 15.1%. For the same molecule, the concentration at half-maximal activity (AC50) under setting [2] is 0.651 µM [rising, single point].
As for `CC(=O)N1CCN(c2nnnn2-c2ccccc2)CC1`, the cell number change is -21.1%. For the same molecule, under setting [1], the AC50 is 20.6 µM [falling, partial curve].
Consider `COC(=O)c1cc(NC(=O)c2cc(C(C)(C)C)nn2Cc2ccc(F)cc2)ccc1N1CCOCC1`, for which the cell number change is -51.6%. Also, under setting [2], the AC50 was 10.3 µM [falling, single point]. The AC50 under setting [1] is 32.6 µM [falling, single point].
With `O=C(c1ccco1)N1CCCC(c2nc3c(nnn3Cc3c(Cl)cccc3Cl)c(=O)[nH]2)C1` (stereo not given), the cell number change is 0.806%. Further, the AC50 under setting [1] is 25.9 µM [falling, single point].
Take `O=C(Cc1cccs1)Nc1nnc(SCC(=O)NC2CCCCC2)s1`: the cell number change amounted to 0.477%.
In the case of `CC(=O)c1sc2nc(-c3ccccc3)cc(C)c2c1N`, the cell number change is -23.3%. For the same molecule, the AC50 under setting [1] is 29.1 µM [falling, single point].
Consider `NC(=O)c1ccc(-n2nnnc2Oc2ccccc2C(=O)N2CCOCC2)cc1`, for which, under setting [2], the AC50 is 6.51 µM [falling, single point].
In the case of `CN(C)C(CNC(=O)c1ccc(S(=O)(=O)Nc2cccc(C(F)(F)F)c2)cc1)c1ccco1` (stereo not given), the cell number change amounted to 23.1%. For the same molecule, the AC50 under setting [1] was 2.59 µM [rising, partial curve, poor fit].
Take `CCN(CC)S(=O)(=O)c1ccc(NC(=O)COC(=O)c2cc(S(=O)(=O)Nc3ccc(OC)cc3)ccc2O)cc1`: the cell number change was -59.3%.
For the molecule `COc1ccc(CCNC(=O)COc2ccc(S(=O)(=O)N3CCOCC3)cc2C)cc1`, the cell number change is 15%.
As for `COCCn1c(SCC(=O)Nc2cccc(C)c2)nnc1C(C)C`, the cell number change was determined as 0.149%.
In the case of `O=C(CCCC(=O)c1ccccc1)NCc1ccccc1`, the cell number change came to 19.6%.
`CC(=O)NNc1ncnc2c1cnn2-c1ccccc1`: the cell number change worked out at 10.8%. Under setting [2], the AC50 was 0.092 µM [rising, full curve, poor fit].
As to `CCOC(=O)c1ccc(NS(=O)(=O)c2cc(-c3nnnn3C(C)C)ccc2OC)cc1`, the cell number change is -33.8%. Under setting [2], the AC50 is 32.6 µM [falling, single point].
`O=C(c1cc2ccccc2o1)n1nnc2ccccc21`: the cell number change is -3.97%. In addition, the AC50 under setting [1] is 0.411 µM [rising, partial curve, poor fit].
As to `CN(C)CCCNC(=O)/C(=C\c1ccc(-c2ccc(Br)cc2)o1)NC(=O)c1ccccc1`, the cell number change was -40%. The AC50 under setting [2] is 9.2 µM [falling, partial curve, poor fit]. Moreover, the AC50 under setting [1] is 13 µM [falling, partial curve].
